Data on 42 sequences can be found in paper PMC7819943, “Rice protein-binding microarrays: a tool to detect cis-acting elements near promoter regions in rice”.

Amino acid sequences for entries named in this document (tags omitted).
UniProt Q0JBA9, entry or part of it: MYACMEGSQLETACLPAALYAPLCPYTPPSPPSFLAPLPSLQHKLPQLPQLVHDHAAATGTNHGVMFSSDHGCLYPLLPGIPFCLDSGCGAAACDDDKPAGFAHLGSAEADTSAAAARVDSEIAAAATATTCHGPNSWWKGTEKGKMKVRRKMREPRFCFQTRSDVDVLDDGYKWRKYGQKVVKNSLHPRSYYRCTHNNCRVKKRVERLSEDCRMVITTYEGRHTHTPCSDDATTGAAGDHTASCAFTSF

The other results are listed elsewhere or left out.

In this assay the target is OsWRKY34 (Oryza sativa, UniProt Q0JBA9 1-250). The assay is described as follows: protein-binding microarray (RPBM); PBS, 2% BSA, 51.3 ng/ul salmon testes DNA, 50 uM zinc acetate, 200 nM TF, 25 C, 1 h; high values mean tight binding. The settings on record: protein: recombinant; tags: N-terminal polyhistidine and DsRed monomer fusion (pET32a); label: CyDye5-dUTP incorporated in the synthesized complementary strand; 3' TTTTT single-stranded linker to array surface; dsDNA, one strand shown. The method, boiled down:
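Using Ni–NTA, transcription factors fused N-terminally to polyhistidine and DsRed were purified after expression in E. coli BL21-CodonPlus. These were incubated at 200 nM with a blocked, double-stranded custom Agilent array for 1 h at 25 °C in a buffer containing 50 µM zinc acetate, and the array was washed. The binding signal is per-feature fluorescence intensity (arbitrary units) on an Axon 4000B scanner.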
Turning to “GGCGGAGGAGTTCAGGTTAGGGTTTTAAATCTCCAGCTATCGGAGTCACCTAGTGCAG”, the binding signal is 8720 fluorescence intensity (a.u.).

“GGGAGAATGGTGGTGGTTGTTGGGCGGCGGCGGTAGATAGCGGAGTCACCTAGTGCAG”: the binding signal is 9450 fluorescence intensity (a.u.).

Take “CACCGGCACCGCATCGCTTCACTCCGCTCTCACAGTCTCACGGAGTCACCTAGTGCAG”: the binding signal is 13400 fluorescence intensity (a.u.).

With “CAGTACACCACACTGTCCACACACCACACCAACTAGTCCACGGAGTCACCTAGTGCAG”, the binding signal was 9370 fluorescence intensity (a.u.).

As for “CCCCACCTTTGTACATCTCCTTCCCTTTTTTTTCTACCCTCGGAGTCACCTAGTGCAG”, the binding signal was 8520 fluorescence intensity (a.u.).

With “GTTTCATCTTCTTGTGGGCTTTTCTGGTGAACTCAATTCACGGAGTCACCTAGTGCAG”, the binding signal is 8250 fluorescence intensity (a.u.).

As to “AGTTTTGCCTGAGCCTATTTTTCATTGATTGCATGTAATACGGAGTCACCTAGTGCAG”, the binding signal was 8540 fluorescence intensity (a.u.).

For “TTTTTTGCTCTATCTGATCCAGTTTGTGCTTGATTTTCTTCGGAGTCACCTAGTGCAG”, the binding signal is 8840 fluorescence intensity (a.u.).

“GCTTTGTTCTGATTCCTTCACAGTTATTTGATATTTTCCTCGGAGTCACCTAGTGCAG”: the binding signal is 8710 fluorescence intensity (a.u.).

As for “AACCAGCTAGCTGATCGAGTTCGTTGTTTACCATCCTATTCGGAGTCACCTAGTGCAG”, the binding signal is 8510 fluorescence intensity (a.u.).

In the case of “AGCTGAGAGCCAACCACCACGCTGCTGCTCCGCCGCTCTTCGGAGTCACCTAGTGCAG”, the binding signal was 8480 fluorescence intensity (a.u.).

Regarding “CCTTCTTTCCCTTTTCCCATCTGGCAAGATTTTTCTTATTCGGAGTCACCTAGTGCAG”, the binding signal is 9610 fluorescence intensity (a.u.).

On to “AACAGACGCAGACAGACACACACGGTCATCACACACGCGCCGGAGTCACCTAGTGCAG”, for which the binding signal was 9030 fluorescence intensity (a.u.).

Take “ATGGACATAGATAGATCACGGTTACCTTTGCAAATAGCTTCGGAGTCACCTAGTGCAG”: the binding signal is 8410 fluorescence intensity (a.u.).

With “TCTGACCGCTGGAAATTCAATTTGTTTTGTTCGTTACTCTCGGAGTCACCTAGTGCAG”, the binding signal was 11400 fluorescence intensity (a.u.).

For “ACCGGGTTGGAATATATTACACCTTCTTCATTTTGTTCATCGGAGTCACCTAGTGCAG”, the binding signal is 8830 fluorescence intensity (a.u.).

Consider “GGTGGTGACGGGGTACTCATCCATGTCGACGTAGTTCTTGCGGAGTCACCTAGTGCAG”, for which the binding signal is 9650 fluorescence intensity (a.u.).

Take “ATATCTTCTTGTCATTTTTTCCACACTTCCTTTTGATTTTCGGAGTCACCTAGTGCAG”: the binding signal was 12400 fluorescence intensity (a.u.).

Regarding “GACCCAACGACCCCGCCATTGCTCACCTCCACCTCCACCTCGGAGTCACCTAGTGCAG”, the binding signal was 8800 fluorescence intensity (a.u.).

As for “GGAAGAGCTCTGTGCATTCTCTTATCAGTTTACTGTTGCACGGAGTCACCTAGTGCAG”, the binding signal was 8350 fluorescence intensity (a.u.).

On to “CGCGTCTCGATCTCGGCGGTGCCTTCCATCCGTCCGCCCGCGGAGTCACCTAGTGCAG”, for which the binding signal was 8220 fluorescence intensity (a.u.).

Turning to “GGAAGTAGCTATCATTTATTTCATTGTGACTTGATTCGTCCGGAGTCACCTAGTGCAG”, the binding signal is 9560 fluorescence intensity (a.u.).

For the sequence “CTTGTGCTGGCAGCAAAGTGCCCTCGTCCTGCCGAAGCTTCGGAGTCACCTAGTGCAG”, the binding signal is 9300 fluorescence intensity (a.u.).

With “ATGCATTCACAGCTACTAGCTACTATACAGTATACACACACGGAGTCACCTAGTGCAG”, the binding signal is 8560 fluorescence intensity (a.u.).

Regarding “ATCTGTGACGGGCTATAGTTTGACTGGTCGTCTGGGTCAACGGAGTCACCTAGTGCAG”, the binding signal was 8840 fluorescence intensity (a.u.).

Regarding “CATGAACCAATCTCCATTAGGCTTATTTCTCTTTCTTCATCGGAGTCACCTAGTGCAG”, the binding signal is 11500 fluorescence intensity (a.u.).

Turning to “TTTCCCTTTGTTTTCTCTTTTCTTTTGGTACTTTTGTGTACGGAGTCACCTAGTGCAG”, the binding signal was 8280 fluorescence intensity (a.u.).

On to “TCTATACATTTCCCGATCCGCCCCTGCAGCAAACCAAGACCGGAGTCACCTAGTGCAG”, for which the binding signal was 10400 fluorescence intensity (a.u.).

On to “TTAATTACTCATTCCTCCCCGCAGTGCCATGTTCTTGAGTCGGAGTCACCTAGTGCAG”, for which the binding signal was 8780 fluorescence intensity (a.u.).

Turning to “CGTAGTAGTGGATGGTAACATATTGGGAGGATTGGTTCAGCGGAGTCACCTAGTGCAG”, the binding signal is 8240 fluorescence intensity (a.u.).

For the sequence “CATCTCTAGCTAGCTCTTCTGGTGTAGGTGCTGTTACTATCGGAGTCACCTAGTGCAG”, the binding signal was 10100 fluorescence intensity (a.u.).

As for “CTACCCCATTGTTAACGAGTTGATCGCAGTCGCCATTACCCGGAGTCACCTAGTGCAG”, the binding signal was 11200 fluorescence intensity (a.u.).

On to “GAACGAGTTTCCTACTTTAGCTCCGCGTTCCTCACTTGCTCGGAGTCACCTAGTGCAG”, for which the binding signal is 8170 fluorescence intensity (a.u.).

Turning to “ATTCTAGTAGTAGTTGTTTATCTTTGTTCTGTTGTTTCTTCGGAGTCACCTAGTGCAG”, the binding signal is 8520 fluorescence intensity (a.u.).

On to “CTCTCCGCCGTCTCAACCTCCGCCGATTCTTCCCACCCAGCGGAGTCACCTAGTGCAG”, for which the binding signal is 8190 fluorescence intensity (a.u.).

As for “GCTTCTGCGGAAAGGGAGGGTGTCGGTGCCAATATCATTACGGAGTCACCTAGTGCAG”, the binding signal was 8370 fluorescence intensity (a.u.).

On to “CGTCGAACGTCCACTACCATCCTCTTGTTAATCCCGCAAACGGAGTCACCTAGTGCAG”, for which the binding signal was 8060 fluorescence intensity (a.u.).

As to “AAGTTCTTGTCTCTCGCGTCACGTTGCTCGCTGCGTCGCTCGGAGTCACCTAGTGCAG”, the binding signal was 10600 fluorescence intensity (a.u.).

Consider “AACTAATACCCAACTCTTTTCGTTTATTAATTGTTATAACCGGAGTCACCTAGTGCAG”, for which the binding signal was 9340 fluorescence intensity (a.u.).

In the case of “GGCGGACGGCACCGCCGGAGTGGGAGGAGGGAGGGAGGAGCGGAGTCACCTAGTGCAG”, the binding signal is 8820 fluorescence intensity (a.u.).

For the sequence “CGTTCCATTCCCGGCGTCGACCTCCGGCCGCTGTCACCGACGGAGTCACCTAGTGCAG”, the binding signal is 8280 fluorescence intensity (a.u.).

As to “TAAAGTAAATGTTGATGGCTCTTATTGCGCATTCTCTGTTCGGAGTCACCTAGTGCAG”, the binding signal is 9540 fluorescence intensity (a.u.).
